Assay results published in PubChem BioAssay AID200 (DTP/NCI, 2004).
The list does not hold the whole screen: it gathers tests that were run many times, whatever their T/C, doses with no T/C, and many T/C values between a quarter and a half above the control. Further doses and runs are listed elsewhere. T/C is the treated group as % of the vehicle group. Some entries give survivors of the animals treated and no T/C: the source holds a T/C of zero for them, seemingly a mark for toxic or unscored doses. Some survivor counts are full or nearly so, which does not show that the dose was tolerated: survival well below the control is almost never listed, so the zero probably covers shortened survival too. Survivors were counted at the toxicity check, usually on the fifth day, unless a day is given; later deaths do not show. Schedule codes are those of the source, taken here to give the interval after Q, in days (D) or hours (H), and the number of doses after X. Some doses were run more than once; the values are given in rising order. Where survival is the endpoint, this PubChem deposit counts one and a half times the control or more as active, and values a quarter to a half above the control carry no call in these data; other NCI protocols may use other cut-offs. Some T/C values carry the count of animals alive at the toxicity check (mostly the fifth day); without a count, all were alive then.

Test system: B6C3F1 mice, B16 melanoma ip, median survival T/C
Test: NCI In Vivo Anticancer Drug Screen. Data for tumor model B16 Melanoma (intraperitoneal) in B6C3F1 mice
Conditions: T/C endpoint: median survival time, higher T/C = longer survival
Method: The antitumor activity of compounds was measured in mice bearing transplantable tumors. Survival or tumor size were measured and the results are expressed as the measurement made in the treated group (T) divided by the measurement made in the vehicle treated control group (C). The tumor model used in this assay is B16 Melanoma (intraperitoneal) in B6C3F1 mice

[1] = dose: 200.0 mg/kg/injection, schedule: Q01DX009 (ip), vehicle: saline with Tween-80
[2] = dose: 400.0 mg/kg/injection, schedule: Q01DX009 (ip), vehicle: saline with Tween-80
[3] = dose: 50.0 mg/kg/injection, schedule: Q01DX009 (ip), vehicle: Klucel (hydroxypropylcellulose) (HPC)
[4] = dose: 100.0 mg/kg/injection, schedule: Q01DX009 (ip), vehicle: saline with Tween-80
[5] = dose: 12.5 mg/kg/injection, schedule: Q01DX009 (ip), vehicle: saline with Tween-80
[6] = dose: 25.0 mg/kg/injection, schedule: Q01DX009 (ip), vehicle: saline with Tween-80
[7] = dose: 50.0 mg/kg/injection, schedule: Q01DX009 (ip), vehicle: saline with Tween-80
[8] = dose: 200.0 mg/kg/injection, schedule: Q01DX009 (ip), vehicle: Klucel (hydroxypropylcellulose) (HPC)
[9] = dose: 20.0 mg/kg/injection, schedule: Q01DX009 (ip), vehicle: saline
[10] = dose: 20.0 mg/kg/injection, schedule: Q01DX009 (ip), vehicle: water
[11] = dose: 400.0 mg/kg/injection, schedule: Q01DX009 (ip), vehicle: Klucel (hydroxypropylcellulose) (HPC)

`O=[N+]([O-])O.[Ga]` was tested, and the survivor count (dose: 100.0 mg/kg/injection, schedule: Q01DX009 (ip), vehicle: saline) was 10 of 10, the survivor count (dose: 200.0 mg/kg/injection, schedule: Q01DX009 (ip), vehicle: saline) was 8 of 10 and the survivor count (dose: 400.0 mg/kg/injection, schedule: Q01DX009 (ip), vehicle: saline) was 3 of 10.

`COC1/C=C/O[C@@]2(C)Oc3c(C)c(O)c4c(O)c(cc(O)c4c3C2=O)NC(=O)/C(C)=C\C=C\[C@H](C)C(O)[C@@H](C)[C@@H](O)[C@@H](C)[C@H](OC(C)=O)[C@@H]1C` (stereo partly drawn) was tested, and the survivor count [1] was 10 of 10 and the survivor count [2] was 10 of 10.

In the case of `O=C([O][Bi]([c]1ccccc1)[c]1ccccc1)c1ccccc1`, the survivor count [3] is reported as 5 of 10 and the survivor count (dose: 100.0 mg/kg/injection, schedule: Q01DX009 (ip), vehicle: Klucel (hydroxypropylcellulose) (HPC)) is reported as 0 of 10.

`CCCC1CCC(=C2C(=O)CCC2=O)O1` (stereo not drawn) was tested, and the survivor count [4] was 8 of 10, the survivor count [1] was 6 of 10 and the survivor count [2] was 1 of 10.

With `CN(C)CC(O)c1cc2ccccc2c2ccccc12` (stereo not drawn) the survivor count (dose: 50.0 mg/kg/injection, schedule: Q01DX009 (ip), vehicle: saline) was 7 of 7.

In the case of `CCC(/C=C/C1OC(=O)C=CC1C)=C\C(C)C/C=C/C(C)=C/C(C)C(=O)C(C)C(O)C(C)C/C(C)=C/C(=O)O` (stereo not drawn), the T/C (dose: 6.25 micrograms/kg/injection, schedule: Q01DX009 (ip), vehicle: other) is reported as 145 % of control, the T/C (dose: 6.25 micrograms/kg/injection, schedule: Q01DX009 (ip), vehicle: saline + alcohol) is reported as 149 % of control and the T/C (dose: 25.0 micrograms/kg/injection, schedule: Q01DX009 (ip), vehicle: other) is reported as 145 % of control. The survivor count (dose: 25.0 micrograms/kg/injection, schedule: Q01DX009 (ip), vehicle: saline + alcohol) was 10 of 10, the survivor count (dose: 50.0 micrograms/kg/injection, schedule: Q01DX009 (ip), vehicle: other) was 10 of 10 and the survivor count (dose: 50.0 micrograms/kg/injection, schedule: Q01DX009 (ip), vehicle: saline + alcohol) was 9 of 10 and 10 of 10. The T/C (dose: 50.0 micrograms/kg/injection, schedule: Q01DX009 (sc), vehicle: other) was 126 % of control, the survivor count (dose: 100.0 micrograms/kg/injection, schedule: Q01DX009 (ip), vehicle: other) was 8 of 10 and the survivor count (dose: 100.0 micrograms/kg/injection, schedule: Q01DX009 (ip), vehicle: saline + alcohol) was 9 of 10 and 10 of 10. The T/C (dose: 100.0 micrograms/kg/injection, schedule: Q01DX009 (sc), vehicle: other) was 135 % of control, the survivor count (dose: 200.0 micrograms/kg/injection, schedule: Q01DX009 (ip), vehicle: saline + alcohol) was 1 of 10 and the T/C (dose: 200.0 micrograms/kg/injection, schedule: Q01DX009 (sc), vehicle: other) was 135 % of control.

In the case of `N#CN=[N+]([O-])c1ccc(C(=O)O)cc1`, the survivor count (dose: 60.0 mg/kg/injection, schedule: Q01DX009 (ip), vehicle: Klucel (hydroxypropylcellulose) (HPC)) is reported as 2 of 10 and 10 of 10.

For `CCc1nc(N)nc(N)c1-c1ccc(Cl)c([N+](=O)[O-])c1`, the T/C [5] was 125 % of control [9 of 10 alive], the T/C [6] was 125 % of control and the T/C [7] was 132 % of control.

With `C[n+]1cccc(NC(=O)c2ccc(NC(=O)C34CCC(C(=O)Nc5ccc(C(=O)Nc6ccc[n+](C)c6)cc5)(CC3)CC4)cc2)c1` the T/C (dose: 10.0 mg/kg/injection, schedule: Q01DX009 (ip), vehicle: saline with Tween-80) was 132 and 133 % of control, the survivor count (dose: 20.0 mg/kg/injection, schedule: Q01DX009 (ip), vehicle: saline with Tween-80) was 10 of 10 and the survivor count (dose: 40.0 mg/kg/injection, schedule: Q01DX009 (ip), vehicle: saline with Tween-80) was 9 of 10 and 10 of 10. For the same molecule, the survivor count (dose: 80.0 mg/kg/injection, schedule: Q01DX009 (ip), vehicle: saline with Tween-80) was 8 of 10 and the survivor count (dose: 160.0 mg/kg/injection, schedule: Q01DX009 (ip), vehicle: saline with Tween-80) was 0 of 10.

With `COC(=O)Nc1cn2ccc(C(Cl)=C(Cl)Cl)cc2n1` the survivor count [8] was 8 of 8.

With `CC[n+]1c(-c2ccccc2)c2cc(N)ccc2c2ccc(N)cc21` the T/C (dose: 1.5 mg/kg/injection, schedule: Q01DX009 (ip), vehicle: water) was 125 % of control, the T/C (dose: 6.0 mg/kg/injection, schedule: Q01DX009 (ip), vehicle: water) was 128 % of control and the T/C (dose: 12.0 mg/kg/injection, schedule: Q01DX009 (ip), vehicle: water) was 139 % of control. The survivor count (dose: 24.0 mg/kg/injection, schedule: Q01DX009 (ip), vehicle: water) was 10 of 10.

In the case of `O=NN(CCCl)C(=O)Oc1ccc(OC(=O)N(CCCl)N=O)cc1`, the survivor count (dose: 25.0 mg/kg/injection, schedule: Q01DX009 (ip), vehicle: Klucel (hydroxypropylcellulose) (HPC)) is reported as 9 of 10 and the survivor count [3] is reported as 9 of 10.

In the case of `Cc1ccc([NH-])c([NH-])c1.[Cl][Pt+2][Cl]`, the T/C (dose: 1.25 mg/kg/injection, schedule: Q01DX009 (ip), vehicle: saline with Tween-80) is reported as 132 % of control and the T/C (dose: 2.5 mg/kg/injection, schedule: Q01DX009 (ip), vehicle: saline with Tween-80) is reported as 137 % of control.

For `Nc1nc(=S)c2ncn(C3OC(CO)CC3O)c2[nH]1` (stereo not drawn), the T/C [9] was 126 % of control.

In the case of `CCC12C[N+]3([O-])CCc4c([nH]c5ccccc45)C(C(=O)OC)(c4cc5c(cc4OC)N(C)C4C(O)(C(=O)OC)C(OC(C)=O)C6(CC)C=CCN7CCC54C76)CC(C3)C1O2` (stereo not drawn), the T/C (dose: 1.25 mg/kg/injection, schedule: Q01DX009 (ip), vehicle: saline) is reported as 147 % of control, the T/C (dose: 1.25 mg/kg/injection, schedule: Q01DX009 (ip), vehicle: water) is reported as 140 % of control and the T/C (dose: 5.0 mg/kg/injection, schedule: Q01DX009 (ip), vehicle: water) is reported as 138 % of control. For the same molecule, the T/C (dose: 10.0 mg/kg/injection, schedule: Q01DX009 (ip), vehicle: water) was 138 % of control, the survivor count [9] was 8 of 10 and the T/C [10] was 135 % of control. The survivor count [10] was 10 of 10.

`COc1cccc2c1C(=O)c1c(O)c3c(c(O)c1C2=O)C[C@@](O)(/C(C)=N/NC(=O)c1ccc(Cl)cc1)C[C@@H]3OC1CC(N)C(O)C(C)O1` (stereo partly drawn) was tested, and the T/C (dose: 1.0 mg/kg/injection, schedule: Q01DX009 (ip), vehicle: saline) was 144 % of control and the survivor count (dose: 16.0 mg/kg/injection, schedule: Q01DX009 (ip), vehicle: saline) was 10 of 10.

`Cc1ccc(NCC2(/N=C/c3ccccc3)OC(CO)C(O)C2O)cc1` (stereo not drawn) was tested, and the T/C (dose: 177.0 mg/kg/injection, schedule: Q01DX009 (ip), vehicle: Klucel (hydroxypropylcellulose) (HPC)) was 141 % of control, the T/C (dose: 266.0 mg/kg/injection, schedule: Q01DX009 (ip), vehicle: Klucel (hydroxypropylcellulose) (HPC)) was 142 % of control and the survivor count (dose: 600.0 mg/kg/injection, schedule: Q01DX009 (ip), vehicle: Klucel (hydroxypropylcellulose) (HPC)) was 3 of 10.

With `O=C(Nc1cccc2c(OC(=O)C(Cl)Cl)c(N=Nc3ccc(S(=O)(=O)Nc4nccs4)cc3)cc(N=Nc3ccc(S(=O)(=O)Nc4nccs4)cc3)c12)C(Cl)Cl` (tested in a mixture with another compound) the T/C [6] was 125 % of control, the T/C [7] was 141 % of control and the survivor count [4] was 7 of 10 and 10 of 10.

With `COC1C(CO)OC(n2cnc3c(=S)nc(N)[nH]c32)C1O` (stereo not drawn) the survivor count [8] was 10 of 10 and the survivor count [11] was 10 of 10.

`C[CH2][Sn]([CH2]C)([CH2]C(=O)OC)[CH2]C(=O)OC` was tested, and the survivor count [5] was 8 of 10, the survivor count [6] was 0 of 10 and the survivor count [7] was 0 of 10. For the same molecule, the survivor count [4] was 0 of 10 and the survivor count [1] was 0 of 10.

`Cc1c(C)c2c(c(C)c1OC(=O)CCC(=O)O)CCC(C)(CCCC(C)CCCC(C)CCCC(C)C)O2` (stereo not drawn) was tested, and the survivor count (dose: 400.0 mg/kg/injection, schedule: Q01DX009 (ip), vehicle: distilled water + Tween-80 + alcohol) was 4 of 9.

In the case of `c1cc(OCC2CO2)ccc1OCC1CO1` (stereo not drawn), the T/C [3] is reported as 133 % of control, the survivor count [8] is reported as 7 of 10 and the survivor count [11] is reported as 0 of 10.
